# Source: the supplement of paper PMC8728848
# Some of the results follow.
# Experiments:
# Experiment in all cases: glycan array binding signal (z-score within array); higher = stronger binding
# Settings in all cases: glycan notation: IUPAC condensed, linker removed; mutation: D21K
# [1] = molecular target: GlcNAc(b1-2)[GlcNAc(b1-4)]Man(a1-3)[GlcNAc(b1-4)][GlcNAc(b1-2)Man(a1-6)]Man(b1-4)GlcNAc(b1-4)GlcNAc
# Outline: (§1)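 The binding signal is a Z-score computed within each array and averaged over linkers. Arrays of the same protein sequence at different concentrations or buffers were also averaged together. Data originate from 3228 arrays in the Consortium for Functional Glycomics database, kept only where the protein sequence was available.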
# [2] = molecular target: GlcNAc(b1-2)[GlcNAc(b1-4)]Man(a1-3)[GlcNAc(b1-4)][GlcNAc(b1-2)[GlcNAc(b1-6)]Man(a1-6)]Man(b1-4)GlcNAc(b1-4)GlcNAc
# Outline: as §1
# [3] = molecular target: GlcNAc(b1-2)[GlcNAc(b1-4)]Man(a1-3)[GlcNAc(b1-4)][GlcNAc(b1-2)[GlcNAc(b1-6)]Man(a1-6)]Man(b1-4)GlcNAc(b1-4)[Fuc(a1-6)]GlcNAc
# Outline: as §1
# [4] = molecular target: GlcNAc(b1-2)[GlcNAc(b1-6)]Man(a1-6)[GlcNAc(b1-2)Man(a1-3)]Man(b1-4)GlcNAc(b1-4)GlcNAc
# Outline: as §1
# [5] = molecular target: GlcNAc(b1-2)[GlcNAc(b1-6)]Man(a1-6)[GlcNAc(b1-2)Man(a1-3)]Man(b1-4)GlcNAc(b1-4)[Fuc(a1-6)]GlcNAc
# Outline: as §1
# [6] = molecular target: GlcNAc(b1-2)[GlcNAc(b1-6)]Man(a1-6)[GlcNAc(b1-4)][GlcNAc(b1-2)Man(a1-3)]Man(b1-4)GlcNAc(b1-4)GlcNAc
# Outline: as §1
# [7] = molecular target: GlcNAc(b1-3)Fuc
# Outline: as §1
# [8] = molecular target: GlcNAc(b1-3)Gal
# Outline: as §1
# [9] = molecular target: GlcNAc(b1-3)Gal(b1-3)GalNAc
# Outline: as §1
# [10] = molecular target: GlcNAc(b1-3)Gal(b1-4)Glc
# Outline: as §1
# [11] = molecular target: GlcNAc(b1-3)Gal(b1-4)GlcNAc
# Outline: as §1
# [12] = molecular target: GlcNAc(b1-3)Gal(b1-4)GlcNAc(b1-2)Man(a1-3)[GlcNAc(b1-3)Gal(b1-4)GlcNAc(b1-2)Man(a1-6)]Man(b1-4)GlcNAc(b1-4)GlcNAc
# Outline: as §1
# [13] = molecular target: GlcNAc(b1-3)Gal(b1-4)GlcNAc(b1-2)Man(a1-3)[GlcNAc(b1-3)Gal(b1-4)GlcNAc(b1-2)Man(a1-6)]Man(b1-4)GlcNAc(b1-4)[Fuc(a1-6)]GlcNAc
# Outline: as §1
# [14] = molecular target: GlcNAc(b1-3)Gal(b1-4)GlcNAc(b1-2)[GlcNAc(b1-3)Gal(b1-4)GlcNAc(b1-6)]Man(a1-6)[GlcNAc(b1-3)Gal(b1-4)GlcNAc(b1-2)Man(a1-3)]Man(b1-4)GlcNAc(b1-4)GlcNAc
# Outline: as §1
# [15] = molecular target: GlcNAc(b1-3)Gal(b1-4)GlcNAc(b1-3)Gal(b1-4)GlcNAc
# Outline: as §1
# [16] = molecular target: GlcNAc(b1-3)Gal(b1-4)GlcNAc(b1-3)Gal(b1-4)GlcNAc(b1-2)Man(a1-3)[GlcNAc(b1-3)Gal(b1-4)GlcNAc(b1-3)Gal(b1-4)GlcNAc(b1-2)Man(a1-6)]Man(b1-4)GlcNAc(b1-4)GlcNAc
# Outline: as §1
# [17] = molecular target: GlcNAc(b1-3)Gal(b1-4)GlcNAc(b1-3)Gal(b1-4)GlcNAc(b1-2)Man(a1-3)[GlcNAc(b1-3)Gal(b1-4)GlcNAc(b1-3)Gal(b1-4)GlcNAc(b1-2)Man(a1-6)]Man(b1-4)GlcNAc(b1-4)[Fuc(a1-6)]GlcNAc
# Outline: as §1
# [18] = molecular target: GlcNAc(b1-3)Gal(b1-4)GlcNAc(b1-3)Gal(b1-4)GlcNAc(b1-2)[GlcNAc(b1-3)Gal(b1-4)GlcNAc(b1-3)Gal(b1-4)GlcNAc(b1-6)]Man(a1-6)[GlcNAc(b1-3)Gal(b1-4)GlcNAc(b1-3)Gal(b1-4)GlcNAc(b1-2)Man(a1-3)]Man(b1-4)GlcNAc(b1-4)[Fuc(a1-6)]GlcNAc
# Outline: as §1
# [19] = molecular target: GlcNAc(b1-3)Gal(b1-4)GlcNAc(b1-3)Gal(b1-4)GlcNAc(b1-3)Gal(b1-4)GlcNAc(b1-2)Man(a1-3)[GlcNAc(b1-3)Gal(b1-4)GlcNAc(b1-3)Gal(b1-4)GlcNAc(b1-3)Gal(b1-4)GlcNAc(b1-2)Man(a1-6)]Man(b1-4)GlcNAc(b1-4)GlcNAc
# Outline: as §1
# [20] = molecular target: GlcNAc(b1-3)Gal(b1-4)GlcNAc(b1-3)Gal(b1-4)GlcNAc(b1-3)Gal(b1-4)GlcNAc(b1-2)Man(a1-3)[GlcNAc(b1-3)Gal(b1-4)GlcNAc(b1-3)Gal(b1-4)GlcNAc(b1-3)Gal(b1-4)GlcNAc(b1-2)Man(a1-6)]Man(b1-4)GlcNAc(b1-4)[Fuc(a1-6)]GlcNAc
# Outline: as §1
# [21] = molecular target: GlcNAc(b1-3)Gal(b1-4)GlcNAc(b1-3)Gal(b1-4)GlcNAc(b1-3)Gal(b1-4)GlcNAc(b1-2)[GlcNAc(b1-3)Gal(b1-4)GlcNAc(b1-3)Gal(b1-4)GlcNAc(b1-3)Gal(b1-4)GlcNAc(b1-6)]Man(a1-6)[GlcNAc(b1-3)Gal(b1-4)GlcNAc(b1-3)Gal(b1-4)GlcNAc(b1-3)Gal(b1-4)GlcNAc(b1-2)Man(a1-3)]Man(b1-4)GlcNAc(b1-4)[Fuc(a1-6)]GlcNAc
# Outline: as §1
# [22] = molecular target: GlcNAc(b1-3)Gal(b1-4)GlcNAc(b1-3)Gal(b1-4)GlcNAc(b1-3)Gal(b1-4)GlcNAc(b1-3)Gal(b1-4)GlcNAc(b1-2)Man(a1-3)[GlcNAc(b1-3)Gal(b1-4)GlcNAc(b1-3)Gal(b1-4)GlcNAc(b1-3)Gal(b1-4)GlcNAc(b1-3)Gal(b1-4)GlcNAc(b1-2)Man(a1-6)]Man(b1-4)GlcNAc(b1-4)GlcNAc
# Outline: as §1
# [23] = molecular target: GlcNAc(b1-3)Gal(b1-4)GlcNAc(b1-3)Gal(b1-4)GlcNAc(b1-3)Gal(b1-4)GlcNAc(b1-3)Gal(b1-4)GlcNAc(b1-2)Man(a1-3)[GlcNAc(b1-3)Gal(b1-4)GlcNAc(b1-3)Gal(b1-4)GlcNAc(b1-3)Gal(b1-4)GlcNAc(b1-3)Gal(b1-4)GlcNAc(b1-2)Man(a1-6)]Man(b1-4)GlcNAc(b1-4)[Fuc(a1-6)]GlcNAc
# Outline: as §1
# [24] = molecular target: GlcNAc(b1-3)Gal(b1-4)GlcNAc(b1-3)Gal(b1-4)GlcNAc(b1-3)Gal(b1-4)GlcNAc(b1-3)Gal(b1-4)GlcNAc(b1-2)[GlcNAc(b1-3)Gal(b1-4)GlcNAc(b1-3)Gal(b1-4)GlcNAc(b1-3)Gal(b1-4)GlcNAc(b1-3)Gal(b1-4)GlcNAc(b1-6)]Man(a1-6)[GlcNAc(b1-3)Gal(b1-4)GlcNAc(b1-3)Gal(b1-4)GlcNAc(b1-3)Gal(b1-4)GlcNAc(b1-3)Gal(b1-4)GlcNAc(b1-2)Man(a1-3)]Man(b1-4)GlcNAc(b1-4)[Fuc(a1-6)]GlcNAc
# Outline: as §1
# [25] = molecular target: GlcNAc(b1-3)Gal(b1-4)GlcNAc(b1-3)Gal(b1-4)GlcNAc(b1-3)GalNAc
# Outline: as §1
# [26] = molecular target: GlcNAc(b1-3)Gal(b1-4)GlcNAc(b1-3)GalNAc
# Outline: as §1
binder,measurement,setting,value
KILRGVCKKIMRTFLRRISKKILTGKK [C7A (Sus scrofa)],glycan array binding signal (z-score),[1],0.383
same,glycan array binding signal (z-score),[2],0.206
same,glycan array binding signal (z-score),[3],-0.801
same,glycan array binding signal (z-score),[4],-0.74
same,glycan array binding signal (z-score),[5],-0.103
same,glycan array binding signal (z-score),[6],-0.656
same,glycan array binding signal (z-score),[7],-1.1
same,glycan array binding signal (z-score),[8],-1.53
same,glycan array binding signal (z-score),[9],-0.399
same,glycan array binding signal (z-score),[10],-0.83
same,glycan array binding signal (z-score),[11],-0.565
same,glycan array binding signal (z-score),[12],-0.861
same,glycan array binding signal (z-score),[13],1.47
same,glycan array binding signal (z-score),[14],-0.983
same,glycan array binding signal (z-score),[15],-0.763
same,glycan array binding signal (z-score),[16],1.46
same,glycan array binding signal (z-score),[17],2.43
same,glycan array binding signal (z-score),[18],1.7
same,glycan array binding signal (z-score),[19],1
same,glycan array binding signal (z-score),[20],1.49
same,glycan array binding signal (z-score),[21],2.39
same,glycan array binding signal (z-score),[22],1.54
same,glycan array binding signal (z-score),[23],-0.881
same,glycan array binding signal (z-score),[24],2.49
same,glycan array binding signal (z-score),[25],0.667
same,glycan array binding signal (z-score),[26],1.01

# Reformatted bar-delimited: entries from further up
binder | measurement | setting | value
KILRGVCKKIMRTFLRRISKKILTGKK [C7A (Sus scrofa)] | glycan array binding signal (z-score) | [19] | 1
same | glycan array binding signal (z-score) | [20] | 1.49
